Patent publication US9797883B2, “Re-trafficking of herg reverses long QT syndrome 2 phenotype in human iPS-derived cardiomyocytes” (Singapore Health Services Pte Ltd, priority 2013, dated 2017)

What was measured:
[1] = tested on: control-EBs; test: Microelectrode array (MEA) extracellular field potential recordings, control; format: cell-based, human; settings: 100 nM E-4031, control EBs, EBs with EADs / EBs tested
Excerpt: (§1) To characterize the electrophysiological properties of the hiPS-CMs, a microelectrode array (MEA) recording system (Multichannel Systems, Reutlingen, Germany) was used as described previously. Briefly, contracting areas were micro-dissected and plated on MEA plates, allowed to adjust for 72 hrs before recording. All clusters were monitored for their beating abilities (beats/min) under the microscope during the 72 hr period. Clusters that maintained relatively uniform beating rates were then subjected to drugs. The MEA system allows simultaneous recordings from 60 titanium nitride-coated gold electrodes (30 μm) at high spatial (200 μm) and temporal (15 kHz) resolutions. All stock drugs were diluted in medium (2 mL) to assess the effects on the electrophysiological properties. […]. MEA clip along with the beating clusters was maintained on 37° C. throughout the duration of experiments. Care was also taken that all buffers including the medium utilized during all experimentation were pre-warmed to 37° C. All tested drugs were procured from Sigma-Aldrich, MO, USA. All extracellular recordings were performed for 180 seconds at baseline and at 5 minutes after drug application at 37° C. Data were recorded using MC Rack software (Multichannel System) and the recordings were used to determine the local field potential duration (FPD). […]

[2] = tested on: LQTS2-EBs; test: Microelectrode array (MEA) extracellular field potential recordings, LQTS2; format: cell-based, human; settings: 100 nM E-4031, LQTS2-contracting EBs, EBs with EADs / EBs tested
Excerpt: as §1

## Cc1cccc(CCN2CCC(C(=O)c3ccc(NS(C)(=O)=O)cc3)CC2)n1 [E-4031]
[1]
  occurrence of early after-depolarizations (EADs): 2/15
[2]
  occurrence of early after-depolarizations (EADs): 14/15
